Measured values taken from paper PMC3653798.
These are yes or no findings as the source states them, for the method shown. In cells and extracts the contact can be indirect. Some binding calls cover weakened binding; strength is not graded here. Sequences can lack the tags named with a protein.

Amino acid sequences for entries named in this document (tags omitted). Residues count along the entry.
UniProt P18537, residues 19-581: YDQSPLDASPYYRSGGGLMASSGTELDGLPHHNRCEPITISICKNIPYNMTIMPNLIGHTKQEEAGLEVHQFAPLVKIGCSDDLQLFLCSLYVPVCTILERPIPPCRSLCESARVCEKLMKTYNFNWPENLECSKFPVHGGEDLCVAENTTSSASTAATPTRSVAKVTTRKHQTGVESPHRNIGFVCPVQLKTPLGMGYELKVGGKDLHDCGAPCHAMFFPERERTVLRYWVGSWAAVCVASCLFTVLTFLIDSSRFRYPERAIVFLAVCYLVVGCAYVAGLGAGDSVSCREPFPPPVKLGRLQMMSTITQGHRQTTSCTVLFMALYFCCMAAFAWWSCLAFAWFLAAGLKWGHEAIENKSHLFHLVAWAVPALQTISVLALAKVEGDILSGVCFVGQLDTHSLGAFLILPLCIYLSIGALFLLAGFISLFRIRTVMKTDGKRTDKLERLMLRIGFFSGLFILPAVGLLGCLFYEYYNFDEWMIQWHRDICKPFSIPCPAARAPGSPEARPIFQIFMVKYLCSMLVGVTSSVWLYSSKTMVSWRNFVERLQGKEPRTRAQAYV

T1: Drosophila APP Like (APPL), FLAG-tagged (Drosophila melanogaster) (UniProt P14599)
T1 sequence: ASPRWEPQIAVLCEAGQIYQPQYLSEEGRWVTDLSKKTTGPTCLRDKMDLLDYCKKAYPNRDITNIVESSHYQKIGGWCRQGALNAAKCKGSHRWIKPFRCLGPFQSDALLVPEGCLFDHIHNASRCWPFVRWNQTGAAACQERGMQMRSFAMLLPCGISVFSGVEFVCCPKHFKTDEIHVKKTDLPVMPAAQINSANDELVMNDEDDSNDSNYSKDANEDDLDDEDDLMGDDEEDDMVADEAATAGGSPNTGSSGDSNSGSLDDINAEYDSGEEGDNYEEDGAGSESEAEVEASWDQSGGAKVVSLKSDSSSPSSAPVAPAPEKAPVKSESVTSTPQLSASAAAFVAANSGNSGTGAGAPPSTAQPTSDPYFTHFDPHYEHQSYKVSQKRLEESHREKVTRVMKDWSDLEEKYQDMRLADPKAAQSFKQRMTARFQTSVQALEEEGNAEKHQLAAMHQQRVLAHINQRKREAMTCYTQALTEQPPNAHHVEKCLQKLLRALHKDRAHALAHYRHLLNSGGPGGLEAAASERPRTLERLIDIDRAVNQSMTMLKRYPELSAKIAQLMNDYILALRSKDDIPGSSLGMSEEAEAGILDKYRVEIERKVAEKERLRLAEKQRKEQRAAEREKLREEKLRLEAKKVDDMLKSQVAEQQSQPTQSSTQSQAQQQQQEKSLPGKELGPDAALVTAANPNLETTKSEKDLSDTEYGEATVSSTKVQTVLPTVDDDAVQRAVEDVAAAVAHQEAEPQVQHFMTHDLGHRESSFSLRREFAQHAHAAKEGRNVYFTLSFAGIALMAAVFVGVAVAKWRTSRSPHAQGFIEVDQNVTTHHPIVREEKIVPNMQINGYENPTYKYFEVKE

T2: human Van Gogh 2 (Vangl2), HA-tagged (human) (UniProt Q9ULK5)
T2 sequence: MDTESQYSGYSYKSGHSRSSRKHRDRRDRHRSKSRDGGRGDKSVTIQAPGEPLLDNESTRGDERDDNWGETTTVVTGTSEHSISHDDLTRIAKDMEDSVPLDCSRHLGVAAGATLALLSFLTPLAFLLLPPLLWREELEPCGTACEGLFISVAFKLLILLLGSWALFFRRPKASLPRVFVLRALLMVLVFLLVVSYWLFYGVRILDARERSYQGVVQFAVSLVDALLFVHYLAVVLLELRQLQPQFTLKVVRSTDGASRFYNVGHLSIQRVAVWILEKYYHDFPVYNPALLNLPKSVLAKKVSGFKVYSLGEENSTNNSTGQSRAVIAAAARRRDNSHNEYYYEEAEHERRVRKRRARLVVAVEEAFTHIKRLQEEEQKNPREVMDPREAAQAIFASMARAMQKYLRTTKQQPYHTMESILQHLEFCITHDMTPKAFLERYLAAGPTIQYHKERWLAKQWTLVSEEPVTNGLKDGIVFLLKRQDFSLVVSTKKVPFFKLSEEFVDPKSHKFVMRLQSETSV


What was measured:
[1] = biological target: T1, Drosophila APP Like (APPL), FLAG-tagged (Drosophila melanogaster); experiment: co-IP; Drosophila tagged proteins co-expressed in HEK293T cells; lysis in 150 mM NaCl, 50 mM Tris/HCl pH 7.5, 10% glycerol, 0.4% Nonidet P-40; IP with anti-FLAG conjugated to Dynabeads M-270, 1 h at 4°C (reverse IP by the partner's tag); Western blot
[2] = biological target: Drosophila Frizzled (Fz), GFP-tagged (Drosophila melanogaster) (UniProt P18537); experiment: as above
[3] = biological target: T2, human Van Gogh 2 (Vangl2), HA-tagged (human); experiment: co-IP; Drosophila and human (or human and human) tagged proteins co-expressed in HEK293 cells; lysis in Tris pH 7.4, 150 mM NaCl, 1 mM EDTA, 0.5% NP40, 1 mM DTT; 1 µg immunoprecipitating antibody 1 h at 4°C, Protein G sepharose overnight; Western blot
[4] = biological target: T2, human Van Gogh 2 (Vangl2), HA-tagged (human); experiment: condition: only proteins expressed separately in different cells and pooled during the Co-IP procedure; co-IP; control: Appl-FLAG and Vangl2-HA expressed separately in different cells in two dishes and pooled during the Co-IP procedure; IP with anti-FLAG and anti-HA; Western blot

Row | binding [1] | binding [2] | binding [3] | binding [4] | Molecule
1 | binds |  |  |  | Drosophila Frizzled (Fz), GFP-tagged (from UniProt P18537 19-581) (receptor)
2 |  | binds | binds | no binding | Drosophila APP Like (APPL), FLAG-tagged (protein, UniProt P14599 28-887) ASPRWEPQIAVLCEAGQIYQPQYLSEEGRWVTDLSKKTTGPTCLRDKMDLLDYCKKAYPNRDITNIVESSHYQKIGGWCRQGALNAAKCKGSHRWIKPFRCLGPFQSDALLVPEGCLFDHIHNASRCWPFVRWNQTGAAACQERGMQMRSFAMLLPCGISVFSGVEFVCCPKHFKTDEIHVKKTDLPVMPAAQINSANDELVMNDEDDSNDSNYSKDANEDDLDDEDDLMGDDEEDDMVADEAATAGGSPNTGSSGDSNSGSLDDINAEYDSGEEGDNYEEDGAGSESEAEVEASWDQSGGAKVVSLKSDSSSPSSAPVAPAPEKAPVKSESVTSTPQLSASAAAFVAANSGNSGTGAGAPPSTAQPTSDPYFTHFDPHYEHQSYKVSQKRLEESHREKVTRVMKDWSDLEEKYQDMRLADPKAAQSFKQRMTARFQTSVQALEEEGNAEKHQLAAMHQQRVLAHINQRKREAMTCYTQALTEQPPNAHHVEKCLQKLLRALHKDRAHALAHYRHLLNSGGPGGLEAAASERPRTLERLIDIDRAVNQSMTMLKRYPELSAKIAQLMNDYILALRSKDDIPGSSLGMSEEAEAGILDKYRVEIERKVAEKERLRLAEKQRKEQRAAEREKLREEKLRLEAKKVDDMLKSQVAEQQSQPTQSSTQSQAQQQQQEKSLPGKELGPDAALVTAANPNLETTKSEKDLSDTEYGEATVSSTKVQTVLPTVDDDAVQRAVEDVAAAVAHQEAEPQVQHFMTHDLGHRESSFSLRREFAQHAHAAKEGRNVYFTLSFAGIALMAAVFVGVAVAKWRTSRSPHAQGFIEVDQNVTTHHPIVREEKIVPNMQINGYENPTYKYFEVKE
